Results are given in words; binding and its absence hold for the method and conditions named. Some entries that bind do so weakly or less than the wild type.
Target: human recombinant TFPI (tissue factor pathway inhibitor) (human) (UniProt P10646)
Experiment: inhibition of amidolytic activity by TFPI, chromogenic substrate PNAPEP 1025

Amino acid sequences for entries named in this document (tags omitted). A change or cut given only in a name is not applied to a line headed by its entry. Residues count along the entry.
UniProt P10646, residues 29-282: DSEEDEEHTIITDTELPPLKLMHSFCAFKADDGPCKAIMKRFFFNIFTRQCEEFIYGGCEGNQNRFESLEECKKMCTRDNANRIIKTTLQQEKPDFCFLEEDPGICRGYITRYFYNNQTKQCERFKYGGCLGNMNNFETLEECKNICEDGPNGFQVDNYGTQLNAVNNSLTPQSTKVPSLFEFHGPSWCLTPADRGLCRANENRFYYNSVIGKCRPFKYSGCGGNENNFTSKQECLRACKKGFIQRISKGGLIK
UniProt P00742: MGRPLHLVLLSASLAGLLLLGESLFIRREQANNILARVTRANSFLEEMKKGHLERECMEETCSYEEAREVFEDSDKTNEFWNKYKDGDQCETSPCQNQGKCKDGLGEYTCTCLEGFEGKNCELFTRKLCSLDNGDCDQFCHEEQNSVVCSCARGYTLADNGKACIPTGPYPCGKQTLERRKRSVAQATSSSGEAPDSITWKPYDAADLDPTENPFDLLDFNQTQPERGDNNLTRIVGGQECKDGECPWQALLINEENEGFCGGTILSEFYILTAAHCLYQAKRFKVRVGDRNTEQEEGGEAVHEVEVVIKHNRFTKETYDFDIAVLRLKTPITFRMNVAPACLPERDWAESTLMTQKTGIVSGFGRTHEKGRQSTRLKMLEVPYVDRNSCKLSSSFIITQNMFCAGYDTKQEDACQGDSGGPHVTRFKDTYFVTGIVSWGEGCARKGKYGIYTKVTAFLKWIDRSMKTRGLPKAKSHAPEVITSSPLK

**Q.** With “human GDXa (Gla Domainless FXa, modified factor Xa) (from UniProt P00742 85-179; P00742 235-488) (enzyme)” as the substance, how does the binding read?
**A.** binds
